No constants are given. Whether binding was seen depends on the method and setting. Some results given as binding are weak or reduced against the parent protein; the word gives no strength.
Target: T1, purified recombinant human DPP3 (dipeptidyl peptidase 3) (human) (UniProt Q9NY33)
T1 sequence: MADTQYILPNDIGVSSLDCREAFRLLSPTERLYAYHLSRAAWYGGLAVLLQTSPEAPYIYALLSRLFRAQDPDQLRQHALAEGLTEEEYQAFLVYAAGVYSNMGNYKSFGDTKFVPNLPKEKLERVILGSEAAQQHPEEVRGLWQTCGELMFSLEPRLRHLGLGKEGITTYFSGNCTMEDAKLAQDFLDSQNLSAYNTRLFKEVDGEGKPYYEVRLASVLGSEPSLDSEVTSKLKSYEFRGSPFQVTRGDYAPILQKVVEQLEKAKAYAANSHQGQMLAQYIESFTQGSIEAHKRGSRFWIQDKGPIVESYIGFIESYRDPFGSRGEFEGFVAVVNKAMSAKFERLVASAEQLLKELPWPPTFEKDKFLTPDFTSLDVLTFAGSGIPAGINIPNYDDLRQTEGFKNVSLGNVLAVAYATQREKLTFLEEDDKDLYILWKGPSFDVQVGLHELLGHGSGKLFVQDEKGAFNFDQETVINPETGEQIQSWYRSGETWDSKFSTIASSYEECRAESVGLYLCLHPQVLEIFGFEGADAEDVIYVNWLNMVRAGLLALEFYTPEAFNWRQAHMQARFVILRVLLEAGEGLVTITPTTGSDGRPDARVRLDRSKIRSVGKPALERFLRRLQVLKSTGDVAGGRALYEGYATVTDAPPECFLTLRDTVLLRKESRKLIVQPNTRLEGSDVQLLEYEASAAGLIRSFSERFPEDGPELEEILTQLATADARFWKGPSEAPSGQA
Test: ITC; single-injection method: 5 µl of 2 mM peptide injected into 200 µl of 20 µM purified hDPP3 in the cell; 50 mM Tris-HCl pH 8.0, 100 mM NaCl; 25 °C; active enzyme, so binding and turnover overlap; both purified

Chains of the proteins cited; added tags and fusions are not shown. Lines headed by an entry give the natural chain unless they say otherwise; changes in a name come on top.
UniProt P01019: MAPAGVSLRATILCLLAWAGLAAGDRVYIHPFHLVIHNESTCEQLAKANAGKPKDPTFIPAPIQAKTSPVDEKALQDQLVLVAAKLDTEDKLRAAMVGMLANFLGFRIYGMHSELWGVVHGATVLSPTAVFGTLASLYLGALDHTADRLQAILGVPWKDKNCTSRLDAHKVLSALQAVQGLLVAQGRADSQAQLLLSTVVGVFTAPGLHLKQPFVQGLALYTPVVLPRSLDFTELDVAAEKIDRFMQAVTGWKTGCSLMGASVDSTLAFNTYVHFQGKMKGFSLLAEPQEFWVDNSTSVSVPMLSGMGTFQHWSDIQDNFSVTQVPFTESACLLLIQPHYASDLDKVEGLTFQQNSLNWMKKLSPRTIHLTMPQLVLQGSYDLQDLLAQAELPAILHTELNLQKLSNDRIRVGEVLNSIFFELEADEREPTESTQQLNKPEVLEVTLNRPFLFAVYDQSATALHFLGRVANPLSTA

| binding | Substance |
| --- | --- |
| binds | angiotensin III, Ang III (2–8) (from UniProt P01019 26-32) (peptide) |
| binds | angiotensin IV, Ang IV (3–8) (from UniProt P01019 27-32) (peptide) |

From article PMC7535908, “Dipeptidyl peptidase 3 modulates the renin–angiotensin system in mice” (The Journal of Biological Chemistry, 2020)
